A: 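Assay on Mycobacterium tuberculosis, filed only as a heat shock assay from Cornell; the read-out is not stated. The concentration is filed as 10 mM, unlikely as a test dose, so the dose is not known. Higher reads as stronger inhibition (inferred: compounds with an IC50 in retests scored well above the rest). Size under these conditions: about 69,000 compounds, about 930 of them at 50% or above in at least one test.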
B: 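Methionyl-tRNA synthetase (putative), Leishmania donovani (UniProt E9BF75). Primary screen of methionyl-tRNA synthetase; the read-out is not stated. The test concentration is not given. The values are filed as inhibition. Of about 68,000 compounds tested this way, about 24 (0.035%) reached 50% or more in at least one test.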

Sequences of proteins named here, by UniProt entry; tags and fusion partners are left off.
UniProt E9BF75, entry or part of it: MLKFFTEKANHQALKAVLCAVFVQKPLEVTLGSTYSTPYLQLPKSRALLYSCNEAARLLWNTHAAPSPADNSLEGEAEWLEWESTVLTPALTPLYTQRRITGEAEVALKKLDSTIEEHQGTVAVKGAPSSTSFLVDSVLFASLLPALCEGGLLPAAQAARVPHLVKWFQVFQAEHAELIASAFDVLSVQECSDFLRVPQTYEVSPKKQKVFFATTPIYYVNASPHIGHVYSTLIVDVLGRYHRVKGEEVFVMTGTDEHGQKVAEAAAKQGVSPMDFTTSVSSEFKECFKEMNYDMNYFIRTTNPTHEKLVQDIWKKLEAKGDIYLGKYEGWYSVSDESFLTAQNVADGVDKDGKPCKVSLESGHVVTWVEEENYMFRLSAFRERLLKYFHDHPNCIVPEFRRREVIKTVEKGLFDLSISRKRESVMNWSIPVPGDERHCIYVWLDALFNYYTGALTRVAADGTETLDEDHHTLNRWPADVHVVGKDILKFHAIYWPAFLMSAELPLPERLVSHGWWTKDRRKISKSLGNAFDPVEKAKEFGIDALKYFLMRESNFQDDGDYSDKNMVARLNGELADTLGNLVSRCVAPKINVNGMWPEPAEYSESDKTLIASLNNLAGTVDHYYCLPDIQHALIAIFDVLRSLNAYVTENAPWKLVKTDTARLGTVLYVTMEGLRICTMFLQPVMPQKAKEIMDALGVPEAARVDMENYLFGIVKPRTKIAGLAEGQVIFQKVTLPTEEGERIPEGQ

Results are percentages, as filed. The controls that fix the scale are not given in the record; negative values are as filed. The compounds are a random part of those screened. A dash means the value is not listed here; it may have been measured.

| compound | A | B |
|---|---|---|
| `Cc1ncnc2c1CCN(C(=O)c1ccnnc1)CC2` | -18.44 | 6.015 |
| `CC(C)Nc1nc(N2CCCC2)nc2c1CCN(S(C)(=O)=O)CC2` | - | 10.68 |
| `CCN(C(=O)CNC1CCc2ncnn2C1)C1=CCCCC1` (stereo not shown) | -37.04 | 5.263 |
| `CC(C)c1ccc2c(c1)CCCN2C(=O)CN(C)S(C)(=O)=O` | -9.464 | 15.57 |
| `CC(=O)c1cccc(OCCCC(=O)N(C)CC(N)=O)c1` | -10.93 | 8.696 |
| `CCN1CC(COc2ccc(OC)cc2)Oc2ccncc2S1(=O)=O` (stereo not shown) | -13.22 | 8.378 |
| `CCN(C)CC(=O)N1CCCC(c2nnc(CN3CCOCC3)n2C)C1` (stereo not shown) | 22.42 | 15.38 |
| `Cc1nnc(CSc2ccccn2)o1` | -10.29 | 8.807 |
| `CCCC(=O)N(CCN1CCOCC1)c1nc2c(OC)ccc(C)c2s1` | - | 13.67 |
| `CC(C)(CNC(=O)Nc1nccs1)N1CCOCC1` | 6.794 | 8.993 |
| `O=C(NCc1ccc(CO)cc1)C1CCOc2ccccc2C1` (stereo not shown) | -1.897 | 16.82 |
| `CN(C)C(=O)c1ccc(C2CCCNC2)nc1` (stereo not shown) | - | 6.452 |
| `O=C(c1ccc(S(=O)(=O)NCc2ccon2)cc1)N1CCCCCC1` | -12.44 | 16.72 |
| `CN(Cc1ccsc1)C(=O)CN1CCCC1Cn1cccn1` (stereo not shown) | 31.5 | 20.14 |
| `Cc1ccc(N2C[C@H]3OCC[C@H]3[C@H](C(=O)NC3CCC3)C2)nn1` | - | 8.571 |
| `Cc1noc(C)c1C1CCCN1CCC(=O)N1CCc2ccccc2C1` (stereo not shown) | -11.61 | 16.43 |
| `CN(Cc1ccco1)[C@@H]1CN(Cc2ccc(F)cc2)[C@@H]2CCCO[C@H]12` | - | 10.99 |
| `Cc1cc(NC(=O)N2CCN(C)CC2C)n(Cc2ccccc2)n1` (stereo not shown) | -43.43 | 10.87 |
| `CC(C)c1nn(C)c(N2CCOCC2)c1CNCC(=O)N(C)C` | 27.22 | 15.34 |
| `CC(C)NC(=O)NCc1ccnc(N(C)C)n1` | 4.511 | 20.91 |
| `C1=CCN(c2nc(CC3CC3)nc3c2CCN(C2CCOCC2)CC3)C1` | -16.27 | 18.81 |
| `COCc1noc(-c2ccc(N3CCCC3c3ccc(F)cc3)nc2)n1` (stereo not shown) | 25.79 | 10.44 |
| `Cc1cc(S(=O)(=O)Nc2onc(C)c2C)sc1C` | -6.593 | 18.77 |
| `CSCCC(Nc1nc(C)cc(C)n1)C(=O)NCC1CCOCC1` (stereo not shown) | 0.4342 | 14.4 |
| `CN(C)CCCNC(=O)c1cc(Br)c2c(c1)OCCO2` | -26 | 17.56 |
| `Fc1ccc2[nH]c(C3CCCN3Cc3c[nH]cn3)nc2c1` (stereo not shown) | 11.36 | 12.39 |
| `[H][C@]12CC[C@]([H])(CN(Cc3cccc(-c4cccc(OC)c4)c3)C1)N(C)C2=O` | 2.588 | - |
| `Cc1cc(C(=O)NCC(O)c2ccc(Cl)s2)c(C)o1` (stereo not shown) | 12.93 | 16.77 |
| `O=C1NCC2=C1C(c1ccc(O)cc1)Nc1ccccc1N2` (stereo not shown) | 14.8 | 8.184 |
| `O=C(CCCC1CCCC1)NS(=O)(=O)CC1CC1` | 4.016 | 12.1 |
| `CCc1ccc(CC)c(NCC(=O)N2CCCC(NC(C)=O)C2)c1` (stereo not shown) | -12.02 | 20.74 |
| `O=C(O)C(F)(F)F.O=C(c1ccc[nH]1)N1CCn2cc(CN3CCCC3)nc2C1` | -12.22 | - |
| `CCCN(Cc1ccccn1)Cc1ccccc1OC` | 31.04 | -4.359 |
| `Cn1cc(CNC2CC3(CCN(S(C)(=O)=O)CC3)c3ccccc32)cn1` (stereo not shown) | - | 10.56 |
| `COCC1CC2(CCN(Cc3ccccn3)CC2)CN1c1ncccn1.O=C(O)C(F)(F)F.O=C(O)C(F)(F)F.O=C(O)C(F)(F)F` (stereo not shown) | -43 | - |
| `O=C(NCCSC1CCCC1)c1cnccn1` | -4.32 | 2.721 |
| `COc1ccc2c(c1)CN(Cc1nc3ccsc3c(=O)[nH]1)CC2` | 63.99 | 6.103 |
| `Cc1cc2c(=O)n3c(nc2s1)CCN(Cc1cnn(C)c1C)CC3` | - | 13.36 |
| `CCCN1CCN(C(=O)Cn2nc(C(F)(F)F)c(Br)c2C2CC2)CC1` | -16.27 | 11.29 |
| `COc1cc(C(C)=O)ccc1SCC(=O)Nc1cccc(C)n1` | 20.68 | 16.55 |
| `O=C(C1CCOCC1)N1CCN(CC2CC2)c2ncccc2C1` | 2.283 | 9.341 |
| `CCc1ncc2c(n1)CN(Cc1nnc(C)o1)CC2` | 6.999 | 9.36 |
| `Cn1cc(NS(=O)(=O)c2ccc(F)c(F)c2)ccc1=O` | -1.009 | 21.79 |
| `CCn1cnnc1C1CCN(C(=O)CCCOc2ccccc2)CC1` | -16.91 | 7.311 |
| `Cc1nc(CN2CCN(C(=O)c3scnc3C)CC2)cs1` | 8.956 | 14.65 |
| `CN(Cc1cc2n(n1)CCNC2)Cc1n[nH]c2c1CCCCC2` | -10.71 | 14.83 |
| `Cc1ccc(S(=O)(=O)N2C[C@H]3C[C@H](NC(=O)c4cscn4)[C@H]3C2)cc1` | - | 5.825 |
| `CC(CN1CCOCC1)NCC1CCN(c2cnn(C)c(=O)c2)CC1` (stereo not shown) | 13.45 | 5.31 |
| `CCn1cc2c(n1)CN(C(=O)c1ccncc1)CC2COCC1CC1` (stereo not shown) | - | 12.97 |
| `O=C([C@H]1CC[C@@H]2[C@@H](CCN2C2CCOCC2)O1)N1CCOCC1` | - | 12.64 |
| `Cc1cc(N2CCC(O)CC2)nc(C)n1` | 0.2499 | 8.014 |
| `CCCNC(=O)c1cc2c([nH]c1=O)CC(c1cccs1)CC2=O` (stereo not shown) | -4.42 | 12.03 |
| `O=C(O)C(F)(F)F.O=C(O)C(F)(F)F.O=C(O)C(F)(F)F.[H][C@@]12CN(Cc3ccc(OC)cc3)C[C@]1([H])OCCN2CCN(C)C` | -21.44 | - |
| `CCOc1ccc(Cl)cc1C1CCCCN1.Cl` (stereo not shown) | -1.261 | - |
| `CCc1ocnc1C(=O)N1CCC(n2cc(-c3ccsc3)nn2)CC1` | 5.514 | 21.11 |
| `O=C(O)c1c(-c2cccnc2)ncc2c1CCN(Cc1cccnc1)C2` | - | 1.307 |
| `Cc1c(C(=O)N2CCCSCC2)nnn1-c1ccccc1Cl` | -44.11 | 15.23 |
| `CCOc1ncccc1CNC(=O)N1CCCC1c1ccsc1` (stereo not shown) | -5.353 | 15.66 |

Repeated from the top, 6 entries:

{"compound": "Cc1ncnc2c1CCN(C(=O)c1ccnnc1)CC2", "A": -18.44, "B": 6.015}
{"compound": "CC(C)Nc1nc(N2CCCC2)nc2c1CCN(S(C)(=O)=O)CC2", "B": 10.68}
{"compound": "CCN(C(=O)CNC1CCc2ncnn2C1)C1=CCCCC1", "stereo": "stereo not shown", "A": -37.04, "B": 5.263}
{"compound": "CC(C)c1ccc2c(c1)CCCN2C(=O)CN(C)S(C)(=O)=O", "A": -9.464, "B": 15.57}
{"compound": "CC(=O)c1cccc(OCCCC(=O)N(C)CC(N)=O)c1", "A": -10.93, "B": 8.696}
{"compound": "CCN1CC(COc2ccc(OC)cc2)Oc2ccncc2S1(=O)=O", "stereo": "stereo not shown", "A": -13.22, "B": 8.378}

Data taken from ChEMBL document CHEMBL3988442, “University of Dundee, Small-Polar-MMV Screening Library” (2021).